± gives the standard deviation of the averaged measurements. The list shows a part of the results, in another mix than the full data. Small differences around the control level are noise.
The targets below were run with Nc1ncnc2c1ncn2[C@@H]1O[C@H](COP(=O)(O)OP(=O)(O)NP(=O)(O)O)[C@@H](O)[C@H]1O [adenylyl imidodiphosphate] (assay: NP40-soluble protein abundance relative to vehicle (solubility fold change) (ratio); higher = more soluble protein in presence of AMP-PNP). Conditions: concentration: 0.1mM.
In short: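 Across three independent experiments, values are fold changes against the detergent-processed vehicle for each replicate, based on vsn-normalised intensities. The samples were Jurkat crude lysate treated with eight concentrations (0.1 to 10 mM) for 10 min at room temperature and then 3 min at 37 °C. Lysate was solubilised with 0.8% NP40 and benzonase, ultracentrifuged, and the supernatant analysed by TMT-labelled LC-MS/MS.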

Amino acid sequences for entries named in this document (tags omitted). A change or cut given only in a name is not applied to a line headed by its entry.
UniProt O15379: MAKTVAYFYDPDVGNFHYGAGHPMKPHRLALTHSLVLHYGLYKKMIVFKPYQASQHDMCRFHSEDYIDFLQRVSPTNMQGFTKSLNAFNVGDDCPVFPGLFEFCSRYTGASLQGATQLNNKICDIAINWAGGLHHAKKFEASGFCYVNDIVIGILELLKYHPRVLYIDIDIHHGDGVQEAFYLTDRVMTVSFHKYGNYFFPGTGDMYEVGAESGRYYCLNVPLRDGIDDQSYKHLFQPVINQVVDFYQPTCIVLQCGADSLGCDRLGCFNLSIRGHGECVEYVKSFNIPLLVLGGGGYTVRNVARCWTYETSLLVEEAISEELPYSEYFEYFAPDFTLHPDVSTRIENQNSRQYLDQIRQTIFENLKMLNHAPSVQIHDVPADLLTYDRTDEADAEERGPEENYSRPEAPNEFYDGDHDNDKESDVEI
UniProt O00161: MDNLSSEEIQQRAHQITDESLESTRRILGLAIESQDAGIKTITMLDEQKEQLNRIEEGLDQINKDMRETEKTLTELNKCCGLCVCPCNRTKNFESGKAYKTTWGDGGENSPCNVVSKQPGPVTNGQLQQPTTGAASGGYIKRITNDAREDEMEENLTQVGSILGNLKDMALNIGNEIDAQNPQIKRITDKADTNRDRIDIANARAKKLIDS
UniProt O00716: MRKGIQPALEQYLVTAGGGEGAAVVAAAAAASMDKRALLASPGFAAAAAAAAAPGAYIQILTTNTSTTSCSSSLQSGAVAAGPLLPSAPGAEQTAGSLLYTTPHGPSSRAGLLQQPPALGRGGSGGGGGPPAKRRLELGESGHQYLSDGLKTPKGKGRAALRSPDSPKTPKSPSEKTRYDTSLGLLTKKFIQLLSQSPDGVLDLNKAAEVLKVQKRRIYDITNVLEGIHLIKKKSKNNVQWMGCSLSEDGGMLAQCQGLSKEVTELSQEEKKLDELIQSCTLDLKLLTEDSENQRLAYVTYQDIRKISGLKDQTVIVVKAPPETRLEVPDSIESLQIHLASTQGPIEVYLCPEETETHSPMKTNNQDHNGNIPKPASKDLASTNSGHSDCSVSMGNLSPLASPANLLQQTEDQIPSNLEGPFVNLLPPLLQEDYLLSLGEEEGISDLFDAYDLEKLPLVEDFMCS
UniProt O43298: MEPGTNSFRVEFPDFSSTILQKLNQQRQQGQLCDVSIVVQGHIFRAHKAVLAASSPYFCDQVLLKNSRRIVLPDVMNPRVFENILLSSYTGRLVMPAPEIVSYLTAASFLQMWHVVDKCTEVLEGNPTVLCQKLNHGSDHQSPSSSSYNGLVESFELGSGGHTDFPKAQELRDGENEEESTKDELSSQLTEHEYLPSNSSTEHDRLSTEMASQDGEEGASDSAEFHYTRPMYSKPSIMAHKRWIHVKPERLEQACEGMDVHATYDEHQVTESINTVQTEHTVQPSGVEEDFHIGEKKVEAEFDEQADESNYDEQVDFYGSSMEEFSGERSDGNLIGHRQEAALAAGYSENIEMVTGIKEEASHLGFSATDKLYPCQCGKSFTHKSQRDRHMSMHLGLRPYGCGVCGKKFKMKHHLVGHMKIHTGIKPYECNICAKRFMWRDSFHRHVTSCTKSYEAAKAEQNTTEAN
UniProt O43143: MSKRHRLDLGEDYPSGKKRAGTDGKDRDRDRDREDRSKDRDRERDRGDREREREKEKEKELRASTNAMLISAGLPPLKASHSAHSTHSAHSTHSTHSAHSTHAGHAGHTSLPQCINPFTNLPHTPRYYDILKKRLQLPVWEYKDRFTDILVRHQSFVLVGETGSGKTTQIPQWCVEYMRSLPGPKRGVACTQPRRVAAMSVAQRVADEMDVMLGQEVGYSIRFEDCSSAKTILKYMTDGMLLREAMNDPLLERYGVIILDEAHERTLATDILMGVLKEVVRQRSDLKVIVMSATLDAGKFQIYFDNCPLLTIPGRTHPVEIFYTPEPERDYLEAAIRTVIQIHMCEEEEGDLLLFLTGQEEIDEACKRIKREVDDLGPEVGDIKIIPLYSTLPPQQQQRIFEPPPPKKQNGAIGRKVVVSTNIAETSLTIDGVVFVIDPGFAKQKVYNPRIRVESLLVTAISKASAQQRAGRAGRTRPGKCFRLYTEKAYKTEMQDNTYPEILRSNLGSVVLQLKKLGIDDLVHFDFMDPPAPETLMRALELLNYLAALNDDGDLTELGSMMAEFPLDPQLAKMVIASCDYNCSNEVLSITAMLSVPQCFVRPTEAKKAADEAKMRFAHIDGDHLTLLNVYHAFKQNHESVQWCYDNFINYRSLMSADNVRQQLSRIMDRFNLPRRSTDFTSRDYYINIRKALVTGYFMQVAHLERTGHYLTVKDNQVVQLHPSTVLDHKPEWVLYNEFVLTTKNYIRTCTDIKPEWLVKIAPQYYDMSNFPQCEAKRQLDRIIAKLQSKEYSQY
UniProt O14744, whole entry: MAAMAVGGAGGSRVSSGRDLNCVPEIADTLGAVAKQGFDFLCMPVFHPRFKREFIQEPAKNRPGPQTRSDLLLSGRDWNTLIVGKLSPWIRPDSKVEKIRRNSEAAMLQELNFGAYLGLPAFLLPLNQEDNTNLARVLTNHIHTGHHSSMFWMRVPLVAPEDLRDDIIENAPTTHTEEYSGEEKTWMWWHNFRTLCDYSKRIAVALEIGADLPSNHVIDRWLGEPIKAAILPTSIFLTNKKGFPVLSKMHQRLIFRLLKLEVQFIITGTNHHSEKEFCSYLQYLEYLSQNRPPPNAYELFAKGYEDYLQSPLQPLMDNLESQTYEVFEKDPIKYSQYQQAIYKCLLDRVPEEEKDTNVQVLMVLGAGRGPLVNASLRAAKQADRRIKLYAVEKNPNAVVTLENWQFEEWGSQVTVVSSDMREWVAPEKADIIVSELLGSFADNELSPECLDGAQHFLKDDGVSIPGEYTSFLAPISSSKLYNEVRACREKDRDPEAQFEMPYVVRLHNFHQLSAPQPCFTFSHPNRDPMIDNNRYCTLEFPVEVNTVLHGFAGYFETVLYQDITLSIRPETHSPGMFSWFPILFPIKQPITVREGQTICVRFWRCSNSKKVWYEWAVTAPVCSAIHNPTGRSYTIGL
UniProt O00506, whole entry, looked up: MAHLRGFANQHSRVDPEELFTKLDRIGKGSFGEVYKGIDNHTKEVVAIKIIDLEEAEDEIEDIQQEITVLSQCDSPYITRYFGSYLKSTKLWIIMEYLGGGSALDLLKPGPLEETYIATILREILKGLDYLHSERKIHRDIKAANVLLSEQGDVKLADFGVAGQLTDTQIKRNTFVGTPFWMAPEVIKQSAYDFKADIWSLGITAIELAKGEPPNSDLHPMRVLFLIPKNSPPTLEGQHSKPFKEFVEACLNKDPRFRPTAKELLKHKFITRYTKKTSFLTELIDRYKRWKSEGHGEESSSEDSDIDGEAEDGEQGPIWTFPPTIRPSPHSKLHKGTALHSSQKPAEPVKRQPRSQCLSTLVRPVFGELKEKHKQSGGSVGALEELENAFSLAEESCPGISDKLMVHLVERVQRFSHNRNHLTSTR
UniProt O43719: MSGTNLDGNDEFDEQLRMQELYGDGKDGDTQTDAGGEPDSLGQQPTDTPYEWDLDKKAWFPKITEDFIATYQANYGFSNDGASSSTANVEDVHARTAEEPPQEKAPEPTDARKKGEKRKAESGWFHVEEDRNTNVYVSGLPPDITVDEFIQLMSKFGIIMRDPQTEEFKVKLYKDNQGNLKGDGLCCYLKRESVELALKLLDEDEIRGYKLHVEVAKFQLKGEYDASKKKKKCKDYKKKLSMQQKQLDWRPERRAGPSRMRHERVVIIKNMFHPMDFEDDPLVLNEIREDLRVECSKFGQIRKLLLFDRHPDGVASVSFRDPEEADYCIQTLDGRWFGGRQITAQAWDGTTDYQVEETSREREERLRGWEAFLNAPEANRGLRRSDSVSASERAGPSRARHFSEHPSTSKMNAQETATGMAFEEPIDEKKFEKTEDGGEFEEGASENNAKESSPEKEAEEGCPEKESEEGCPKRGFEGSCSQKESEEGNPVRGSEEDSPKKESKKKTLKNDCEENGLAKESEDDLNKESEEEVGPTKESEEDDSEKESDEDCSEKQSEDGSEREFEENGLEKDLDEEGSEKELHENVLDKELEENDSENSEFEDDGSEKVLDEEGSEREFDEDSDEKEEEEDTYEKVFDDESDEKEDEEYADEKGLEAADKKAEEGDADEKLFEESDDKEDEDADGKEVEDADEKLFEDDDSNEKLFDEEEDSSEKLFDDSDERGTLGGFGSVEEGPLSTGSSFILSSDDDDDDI
UniProt O15260: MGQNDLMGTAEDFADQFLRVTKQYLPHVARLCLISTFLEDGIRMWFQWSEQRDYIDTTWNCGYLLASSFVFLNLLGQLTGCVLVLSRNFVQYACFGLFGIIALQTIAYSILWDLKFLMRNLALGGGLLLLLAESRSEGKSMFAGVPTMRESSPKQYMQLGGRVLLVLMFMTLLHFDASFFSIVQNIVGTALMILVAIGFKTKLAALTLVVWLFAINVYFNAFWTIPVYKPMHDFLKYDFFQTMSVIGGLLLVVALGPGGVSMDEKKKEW
UniProt O00429, whole entry: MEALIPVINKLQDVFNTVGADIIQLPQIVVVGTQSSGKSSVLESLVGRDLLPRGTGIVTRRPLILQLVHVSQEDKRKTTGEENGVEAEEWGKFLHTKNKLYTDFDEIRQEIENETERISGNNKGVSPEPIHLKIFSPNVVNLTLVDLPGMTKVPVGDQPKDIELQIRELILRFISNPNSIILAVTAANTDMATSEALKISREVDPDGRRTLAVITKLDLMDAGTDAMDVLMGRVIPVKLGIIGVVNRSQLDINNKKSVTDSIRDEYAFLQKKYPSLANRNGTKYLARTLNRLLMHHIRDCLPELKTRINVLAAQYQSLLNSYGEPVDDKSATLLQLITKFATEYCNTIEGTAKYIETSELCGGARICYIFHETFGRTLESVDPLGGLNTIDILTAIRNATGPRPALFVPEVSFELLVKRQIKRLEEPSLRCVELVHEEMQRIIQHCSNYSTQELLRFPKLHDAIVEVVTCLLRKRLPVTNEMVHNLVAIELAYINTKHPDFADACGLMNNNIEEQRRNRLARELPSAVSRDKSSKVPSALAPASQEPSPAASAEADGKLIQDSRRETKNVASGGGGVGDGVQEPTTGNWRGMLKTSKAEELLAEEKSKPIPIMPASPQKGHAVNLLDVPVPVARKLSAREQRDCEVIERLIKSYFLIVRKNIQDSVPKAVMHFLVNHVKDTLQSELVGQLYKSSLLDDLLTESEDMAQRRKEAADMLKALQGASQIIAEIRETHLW
UniProt O43252: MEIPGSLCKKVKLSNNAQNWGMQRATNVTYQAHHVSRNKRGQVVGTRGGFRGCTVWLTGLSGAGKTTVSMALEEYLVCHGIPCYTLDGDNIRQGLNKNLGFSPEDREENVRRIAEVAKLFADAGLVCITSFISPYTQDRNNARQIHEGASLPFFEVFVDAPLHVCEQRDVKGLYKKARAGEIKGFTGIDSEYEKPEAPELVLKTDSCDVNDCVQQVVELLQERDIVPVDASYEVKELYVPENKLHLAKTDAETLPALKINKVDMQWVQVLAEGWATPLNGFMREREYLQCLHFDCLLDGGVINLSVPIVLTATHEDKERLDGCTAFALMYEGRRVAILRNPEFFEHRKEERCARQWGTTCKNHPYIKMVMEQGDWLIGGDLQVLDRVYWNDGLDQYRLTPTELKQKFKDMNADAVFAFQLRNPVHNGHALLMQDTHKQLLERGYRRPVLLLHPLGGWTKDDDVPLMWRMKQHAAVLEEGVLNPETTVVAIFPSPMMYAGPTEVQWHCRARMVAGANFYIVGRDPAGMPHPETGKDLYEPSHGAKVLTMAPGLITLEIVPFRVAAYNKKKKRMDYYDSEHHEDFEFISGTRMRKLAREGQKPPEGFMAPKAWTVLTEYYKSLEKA
UniProt O00767: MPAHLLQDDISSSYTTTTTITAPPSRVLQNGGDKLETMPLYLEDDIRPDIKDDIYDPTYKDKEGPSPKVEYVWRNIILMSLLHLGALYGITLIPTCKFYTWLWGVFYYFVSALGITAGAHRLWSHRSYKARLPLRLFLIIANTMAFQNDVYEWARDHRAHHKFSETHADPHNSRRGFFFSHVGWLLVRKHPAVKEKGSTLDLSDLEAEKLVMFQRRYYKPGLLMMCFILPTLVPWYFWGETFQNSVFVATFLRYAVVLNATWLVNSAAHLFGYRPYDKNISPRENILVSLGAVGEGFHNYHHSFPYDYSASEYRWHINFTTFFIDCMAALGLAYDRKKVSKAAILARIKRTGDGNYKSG
UniProt O43583: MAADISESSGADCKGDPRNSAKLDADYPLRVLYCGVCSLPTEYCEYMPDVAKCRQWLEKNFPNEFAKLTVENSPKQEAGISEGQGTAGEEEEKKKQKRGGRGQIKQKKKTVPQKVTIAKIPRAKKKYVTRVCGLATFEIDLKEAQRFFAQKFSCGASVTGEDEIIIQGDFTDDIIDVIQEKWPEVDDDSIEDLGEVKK
UniProt O43760: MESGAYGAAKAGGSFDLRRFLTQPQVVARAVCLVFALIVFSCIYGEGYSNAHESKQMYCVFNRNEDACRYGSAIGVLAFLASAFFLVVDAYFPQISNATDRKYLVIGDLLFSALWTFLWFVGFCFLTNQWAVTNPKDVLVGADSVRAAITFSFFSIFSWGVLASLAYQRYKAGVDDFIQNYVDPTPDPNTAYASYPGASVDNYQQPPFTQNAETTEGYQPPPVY

Target	NP40-soluble protein abundance
NDUFA2 (UniProt O43678)	0.998 ± 0.056
VWA5A (UniProt O00534)	0.979 ± 0.014
UniProt O15379 and related entries	0.986 ± 0.036
UniProt O00743 and related entries	1.042 ± 0.0029
SNAP23 (UniProt O00161)	0.973 ± 0.037
UniProt O00716 and related entries	1 ± 0.021
UniProt O43251-6|O43251-8	0.999 ± 0.0073
ZW10 (UniProt O43264)	1.01 ± 0.021
ZBTB43 (UniProt O43298)	1.01 ± 0.067
M0R2S1 and related entries (UniProt P62987)	0.972 ± 0.091
DHX15 (UniProt O43143)	1.07 ± 0.017
PRMT5 (UniProt O14744)	0.993 ± 0.025
UniProt O00506	1.025 ± 0.0073
HTATSF1 (UniProt O43719)	0.986 ± 0.046
AKAP8 (UniProt O43823)	0.989 ± 0.029
UniProt O15260 and related entries	1.03 ± 0.042
UniProt O15111	1.018 ± 0.0092
K7EM18 and related entries (UniProt P41567)	1.04 ± 0.016
DNM1L (UniProt O00429)	1.02 ± 0.012

Target	NP40-soluble protein abundance
K7EPA3 and related entries (UniProt Q9NX61)	0.997 ± 0.018
UniProt O43150 and related entries	0.989 ± 0.031
UniProt O43172 and related entries	1.04 ± 0.047
K7ELC7 and related entries (UniProt P61353)	1.051 ± 0.0099
K7EQ37 and related entries (UniProt Q70J99)	1.02 ± 0.037
M0QYA8 and related entries (UniProt Q8IV63)	1.05 ± 0.045
PAPSS1 (UniProt O43252)	0.993 ± 0.036
SCD (UniProt O00767)	0.975 ± 0.08
M0QXA7 and related entries (UniProt O95785)	0.999 ± 0.03
UniProt O15015 and related entries	0.99314 ± 0.00064
UniProt O43504	1.03 ± 0.028
SLC35A4 (UniProt L0R6Q1)	0.979 ± 0.038
DENR (UniProt O43583)	0.988 ± 0.035
UniProt O43684 and related entries	0.995 ± 0.017
UniProt O43760 and related entries	0.979 ± 0.025
NDUFAB1 (UniProt O14561)	0.978 ± 0.057
RNF113A (UniProt O15541)	0.964 ± 0.03
M0QYT9 and related entries (UniProt Q14653)	1.04 ± 0.023
NVL (UniProt O15381)	1.03 ± 0.033

Same assay, conditions: concentration: 0.5mM

Target	NP40-soluble protein abundance
NDUFA2 (UniProt O43678)	0.993 ± 0.059
VWA5A (UniProt O00534)	0.992 ± 0.023
UniProt O15379 and related entries	1 ± 0.028
UniProt O00743 and related entries	0.992 ± 0.072
SNAP23 (UniProt O00161)	0.9746 ± 0.0092
UniProt O00716 and related entries	0.982 ± 0.037
UniProt O43251-6|O43251-8	0.994 ± 0.034
ZW10 (UniProt O43264)	0.977 ± 0.043
ZBTB43 (UniProt O43298)	0.98 ± 0.019
M0R2S1 and related entries (UniProt P62987)	1.04 ± 0.02
DHX15 (UniProt O43143)	1.08 ± 0.059
PRMT5 (UniProt O14744)	0.967 ± 0.059
UniProt O00506	1 ± 0.018
HTATSF1 (UniProt O43719)	1.02 ± 0.056
AKAP8 (UniProt O43823)	1.01 ± 0.041
UniProt O15260 and related entries	0.984 ± 0.021
UniProt O15111	1.04 ± 0.018
K7EM18 and related entries (UniProt P41567)	1.08 ± 0.096
DNM1L (UniProt O00429)	1 ± 0.035

Target	NP40-soluble protein abundance
K7EPA3 and related entries (UniProt Q9NX61)	1.03 ± 0.019
UniProt O43150 and related entries	0.974 ± 0.021
UniProt O43172 and related entries	1.02 ± 0.043
K7ELC7 and related entries (UniProt P61353)	1.02 ± 0.023
K7EQ37 and related entries (UniProt Q70J99)	1.01 ± 0.045
M0QYA8 and related entries (UniProt Q8IV63)	1.07 ± 0.019
PAPSS1 (UniProt O43252)	1.01 ± 0.054
SCD (UniProt O00767)	0.978 ± 0.098
M0QXA7 and related entries (UniProt O95785)	1.03 ± 0.028
UniProt O15015 and related entries	1.02 ± 0.031
UniProt O43504	1.07 ± 0.077
SLC35A4 (UniProt L0R6Q1)	1.06 ± 0.09
DENR (UniProt O43583)	1.01 ± 0.027
UniProt O43684 and related entries	1.017 ± 0.01
UniProt O43760 and related entries	0.98 ± 0.02
NDUFAB1 (UniProt O14561)	0.987 ± 0.034
RNF113A (UniProt O15541)	0.9848 ± 0.0038
M0QYT9 and related entries (UniProt Q14653)	0.997 ± 0.029
NVL (UniProt O15381)	1.054 ± 0.0082
